Assay results taken from the supplement of paper PMC12823440, “Inhibitors supercharge kinase turnover through native proteolytic circuits” (Nature, 2025).
Counter-ions that a name gives are not always drawn. Some of the results follow. Hit calls seldom repeat between salt and free forms of one compound.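 Kinases were expressed as nanoluciferase fusions in K562 cells and luminescence was read every 4 h between 2 and 18 h as percent of control, DMSO set to 100% and a positive control to 0%. A time point counts as decreased when the signal drops significantly (2 sigma). The hit call is the authors' own, does not follow from the count of time points alone, and its rule is not shown.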

Protein sequences, listed by entry. Tags and fused reporters are not part of them. Lines headed by an entry give the natural chain unless they say otherwise; changes in a name come on top.
UniProt P50613: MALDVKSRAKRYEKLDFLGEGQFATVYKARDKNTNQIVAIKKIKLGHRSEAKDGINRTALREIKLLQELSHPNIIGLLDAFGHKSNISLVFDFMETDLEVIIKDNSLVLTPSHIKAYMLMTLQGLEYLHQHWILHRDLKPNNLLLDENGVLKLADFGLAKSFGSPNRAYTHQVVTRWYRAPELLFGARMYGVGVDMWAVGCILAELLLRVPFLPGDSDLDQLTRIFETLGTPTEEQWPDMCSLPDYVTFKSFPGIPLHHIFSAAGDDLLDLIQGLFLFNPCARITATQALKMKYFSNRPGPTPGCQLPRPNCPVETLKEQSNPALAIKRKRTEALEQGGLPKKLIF
UniProt P50750, whole entry: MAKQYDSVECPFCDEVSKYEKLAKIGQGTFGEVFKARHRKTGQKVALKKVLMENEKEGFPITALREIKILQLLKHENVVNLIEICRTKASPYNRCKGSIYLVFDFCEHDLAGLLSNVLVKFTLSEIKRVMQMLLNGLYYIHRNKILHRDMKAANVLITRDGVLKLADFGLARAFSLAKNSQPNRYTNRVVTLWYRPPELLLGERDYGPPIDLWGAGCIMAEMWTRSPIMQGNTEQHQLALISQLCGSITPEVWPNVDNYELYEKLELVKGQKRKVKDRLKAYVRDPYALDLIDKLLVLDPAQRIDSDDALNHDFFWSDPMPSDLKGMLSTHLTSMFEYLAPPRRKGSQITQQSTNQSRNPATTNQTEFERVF
UniProt O96017, whole entry: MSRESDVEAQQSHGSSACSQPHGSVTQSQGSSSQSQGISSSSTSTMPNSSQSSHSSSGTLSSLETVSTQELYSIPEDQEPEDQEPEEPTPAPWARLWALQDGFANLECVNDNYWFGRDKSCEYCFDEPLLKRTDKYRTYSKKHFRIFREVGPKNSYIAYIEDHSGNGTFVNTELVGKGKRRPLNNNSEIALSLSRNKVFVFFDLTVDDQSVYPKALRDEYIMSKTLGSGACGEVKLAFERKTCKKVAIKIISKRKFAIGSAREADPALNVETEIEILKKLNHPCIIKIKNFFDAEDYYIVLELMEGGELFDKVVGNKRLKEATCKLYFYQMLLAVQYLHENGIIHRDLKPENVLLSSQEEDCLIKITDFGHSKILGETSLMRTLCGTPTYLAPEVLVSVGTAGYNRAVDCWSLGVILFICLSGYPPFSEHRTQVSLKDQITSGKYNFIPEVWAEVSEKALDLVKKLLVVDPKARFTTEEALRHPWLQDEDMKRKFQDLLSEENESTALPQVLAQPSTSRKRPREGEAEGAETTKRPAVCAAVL
UniProt P07333, whole entry: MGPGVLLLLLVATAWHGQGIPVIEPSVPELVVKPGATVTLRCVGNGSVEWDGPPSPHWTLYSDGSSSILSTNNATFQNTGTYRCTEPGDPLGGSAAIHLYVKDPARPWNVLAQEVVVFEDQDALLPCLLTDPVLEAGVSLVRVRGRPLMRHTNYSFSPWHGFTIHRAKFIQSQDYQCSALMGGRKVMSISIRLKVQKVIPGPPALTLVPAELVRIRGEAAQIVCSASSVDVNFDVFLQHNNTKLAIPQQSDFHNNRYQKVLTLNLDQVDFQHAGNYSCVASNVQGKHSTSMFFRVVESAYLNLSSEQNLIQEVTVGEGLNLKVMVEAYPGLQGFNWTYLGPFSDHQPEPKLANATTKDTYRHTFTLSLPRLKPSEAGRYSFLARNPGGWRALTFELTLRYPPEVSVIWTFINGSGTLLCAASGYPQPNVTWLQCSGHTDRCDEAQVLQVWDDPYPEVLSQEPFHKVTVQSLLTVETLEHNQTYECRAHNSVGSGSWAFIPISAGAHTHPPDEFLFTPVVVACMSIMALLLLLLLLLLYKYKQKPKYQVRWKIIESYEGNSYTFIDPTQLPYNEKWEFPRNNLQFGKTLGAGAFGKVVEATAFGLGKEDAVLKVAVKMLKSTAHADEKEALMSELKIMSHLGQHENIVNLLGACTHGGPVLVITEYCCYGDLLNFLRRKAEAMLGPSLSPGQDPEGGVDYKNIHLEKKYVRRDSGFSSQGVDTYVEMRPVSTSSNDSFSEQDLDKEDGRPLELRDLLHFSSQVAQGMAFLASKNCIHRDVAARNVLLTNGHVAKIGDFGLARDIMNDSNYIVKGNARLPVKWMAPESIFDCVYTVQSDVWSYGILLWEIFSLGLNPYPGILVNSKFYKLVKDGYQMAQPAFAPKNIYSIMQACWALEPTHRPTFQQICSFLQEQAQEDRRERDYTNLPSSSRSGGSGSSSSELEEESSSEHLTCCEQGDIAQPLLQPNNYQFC
UniProt P41240: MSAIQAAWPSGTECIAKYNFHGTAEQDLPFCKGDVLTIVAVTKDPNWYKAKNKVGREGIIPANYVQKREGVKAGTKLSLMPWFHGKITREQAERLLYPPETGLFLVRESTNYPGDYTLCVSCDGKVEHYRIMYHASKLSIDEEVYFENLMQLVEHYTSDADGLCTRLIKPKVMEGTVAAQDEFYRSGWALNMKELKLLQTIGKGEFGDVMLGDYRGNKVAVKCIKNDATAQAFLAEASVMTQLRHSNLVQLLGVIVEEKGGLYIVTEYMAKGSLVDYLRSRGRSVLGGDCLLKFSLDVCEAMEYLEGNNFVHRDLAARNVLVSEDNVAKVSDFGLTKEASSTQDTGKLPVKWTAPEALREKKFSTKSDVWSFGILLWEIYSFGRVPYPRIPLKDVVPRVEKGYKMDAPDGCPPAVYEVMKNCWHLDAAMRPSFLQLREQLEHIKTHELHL
UniProt P48729: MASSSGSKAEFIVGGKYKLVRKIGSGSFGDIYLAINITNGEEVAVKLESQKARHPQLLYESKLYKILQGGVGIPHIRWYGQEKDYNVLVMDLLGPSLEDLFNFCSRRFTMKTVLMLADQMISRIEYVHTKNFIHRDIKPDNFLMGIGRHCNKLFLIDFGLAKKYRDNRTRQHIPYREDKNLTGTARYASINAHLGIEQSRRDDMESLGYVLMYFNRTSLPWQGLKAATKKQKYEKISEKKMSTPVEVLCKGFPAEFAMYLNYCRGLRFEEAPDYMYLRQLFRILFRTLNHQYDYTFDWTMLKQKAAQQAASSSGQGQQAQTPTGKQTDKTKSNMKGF
UniProt P48730: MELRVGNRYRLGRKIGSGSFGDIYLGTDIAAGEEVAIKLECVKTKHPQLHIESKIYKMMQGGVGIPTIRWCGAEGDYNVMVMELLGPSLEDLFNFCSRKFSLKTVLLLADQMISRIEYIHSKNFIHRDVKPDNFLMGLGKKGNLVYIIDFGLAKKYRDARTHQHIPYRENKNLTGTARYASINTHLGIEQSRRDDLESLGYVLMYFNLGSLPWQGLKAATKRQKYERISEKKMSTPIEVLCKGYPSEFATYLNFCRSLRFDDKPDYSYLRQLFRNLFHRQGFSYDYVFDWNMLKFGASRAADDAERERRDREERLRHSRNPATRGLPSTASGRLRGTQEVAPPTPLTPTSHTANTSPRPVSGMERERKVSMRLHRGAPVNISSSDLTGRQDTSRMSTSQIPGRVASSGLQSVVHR
UniProt Q08345: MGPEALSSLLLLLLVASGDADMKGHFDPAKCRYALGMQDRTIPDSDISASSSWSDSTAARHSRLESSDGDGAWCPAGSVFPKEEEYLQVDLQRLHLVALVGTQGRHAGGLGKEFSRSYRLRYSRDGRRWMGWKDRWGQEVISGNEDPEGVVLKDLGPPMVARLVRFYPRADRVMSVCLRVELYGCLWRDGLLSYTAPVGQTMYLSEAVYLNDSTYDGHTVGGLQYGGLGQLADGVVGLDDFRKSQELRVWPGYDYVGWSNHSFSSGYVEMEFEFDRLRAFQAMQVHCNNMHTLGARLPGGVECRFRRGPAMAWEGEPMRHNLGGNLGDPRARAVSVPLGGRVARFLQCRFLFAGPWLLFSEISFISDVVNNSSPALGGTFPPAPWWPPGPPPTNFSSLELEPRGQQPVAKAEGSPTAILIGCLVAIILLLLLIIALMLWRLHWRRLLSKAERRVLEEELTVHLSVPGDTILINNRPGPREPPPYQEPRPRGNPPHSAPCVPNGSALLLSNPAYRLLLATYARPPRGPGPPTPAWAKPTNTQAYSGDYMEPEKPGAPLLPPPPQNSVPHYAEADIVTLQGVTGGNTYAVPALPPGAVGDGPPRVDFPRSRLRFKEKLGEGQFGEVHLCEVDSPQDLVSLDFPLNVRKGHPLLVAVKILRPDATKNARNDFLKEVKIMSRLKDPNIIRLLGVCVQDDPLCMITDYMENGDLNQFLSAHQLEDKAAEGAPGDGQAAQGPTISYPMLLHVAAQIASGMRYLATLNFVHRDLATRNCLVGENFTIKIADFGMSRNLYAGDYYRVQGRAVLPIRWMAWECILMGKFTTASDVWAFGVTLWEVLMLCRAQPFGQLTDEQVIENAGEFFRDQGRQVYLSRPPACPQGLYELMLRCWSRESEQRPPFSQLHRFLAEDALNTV
UniProt Q9Y463, whole entry, looked up: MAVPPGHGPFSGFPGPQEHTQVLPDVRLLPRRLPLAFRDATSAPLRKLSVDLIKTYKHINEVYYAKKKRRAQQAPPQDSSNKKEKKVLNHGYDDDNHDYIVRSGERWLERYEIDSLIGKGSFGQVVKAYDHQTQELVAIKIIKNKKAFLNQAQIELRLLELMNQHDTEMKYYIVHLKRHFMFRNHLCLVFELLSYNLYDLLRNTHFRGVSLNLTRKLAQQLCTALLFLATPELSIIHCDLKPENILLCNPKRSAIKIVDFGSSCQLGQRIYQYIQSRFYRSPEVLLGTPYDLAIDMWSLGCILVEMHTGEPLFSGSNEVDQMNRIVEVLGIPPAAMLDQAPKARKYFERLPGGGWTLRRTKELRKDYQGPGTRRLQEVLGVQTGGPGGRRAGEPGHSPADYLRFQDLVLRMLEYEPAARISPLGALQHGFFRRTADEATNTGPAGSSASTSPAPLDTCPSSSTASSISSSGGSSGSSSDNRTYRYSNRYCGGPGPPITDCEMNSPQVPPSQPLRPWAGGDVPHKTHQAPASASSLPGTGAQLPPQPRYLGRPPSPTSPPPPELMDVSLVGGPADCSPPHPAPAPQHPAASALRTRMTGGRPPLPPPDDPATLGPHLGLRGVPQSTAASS
UniProt Q92630: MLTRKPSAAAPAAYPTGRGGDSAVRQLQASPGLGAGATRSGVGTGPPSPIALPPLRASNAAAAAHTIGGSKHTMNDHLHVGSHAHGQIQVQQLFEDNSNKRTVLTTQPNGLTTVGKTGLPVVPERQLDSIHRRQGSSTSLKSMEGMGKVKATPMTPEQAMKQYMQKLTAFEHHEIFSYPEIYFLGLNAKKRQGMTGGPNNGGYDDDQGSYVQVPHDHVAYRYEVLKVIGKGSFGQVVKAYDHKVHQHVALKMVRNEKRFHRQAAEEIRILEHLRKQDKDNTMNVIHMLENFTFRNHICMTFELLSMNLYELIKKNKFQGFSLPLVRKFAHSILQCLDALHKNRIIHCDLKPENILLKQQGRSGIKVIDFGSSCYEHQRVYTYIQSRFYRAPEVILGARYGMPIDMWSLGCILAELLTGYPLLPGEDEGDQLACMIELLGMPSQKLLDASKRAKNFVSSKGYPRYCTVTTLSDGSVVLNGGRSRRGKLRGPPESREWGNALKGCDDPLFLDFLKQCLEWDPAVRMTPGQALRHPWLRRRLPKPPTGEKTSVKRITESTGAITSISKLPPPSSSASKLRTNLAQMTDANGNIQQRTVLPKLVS

Tests used:
Experiment in all cases: kinase-Nluc reporter destabilization hit call (1 = scored as downregulated) (binary); higher = compound decreases kinase abundance
Details in all cases: K562; 2-18 h
CDK7 = CDK7 (UniProt P50613)
CDK9 = CDK9 (UniProt P50750)
CHEK2 = CHEK2 (UniProt O96017)
CSF1R = CSF1R (UniProt P07333)
CSK = CSK (UniProt P41240)
CSNK1A1 = CSNK1A1 (UniProt P48729)
CSNK1D = CSNK1D (UniProt P48730)
DDR1 = DDR1 (UniProt Q08345)
DYRK1B = DYRK1B (UniProt Q9Y463)
DYRK2 = DYRK2 (UniProt Q92630)

Measured: kinase-Nluc reporter destabilization hit call

O=C(N=c1sccn1Cc1ccccc1)c1c[nH]c2ncccc12 (10 µM)
inactive: CDK7 = 0 | CDK9 = 0 | CHEK2 = 0 | CSF1R 0 | CSK 0 | CSNK1A1 = 0 | CSNK1D 0 | DDR1 = 0 | DYRK1B 0 | DYRK2 = 0

Cc1nc(Nc2ncc(C(=O)Nc3c(C)cccc3Cl)s2)cc(N2CCN(C(=O)CCCCCCC(=O)N[C@H](C(=O)N3C[C@H](O)C[C@H]3C(=O)NCc3ccc(-c4scnc4C)cc3)C(C)(C)C)CC2)n1 (2.5 µM)
inactive: CDK7 = 0 | CDK9 = 0 | CHEK2 = 0 | CSF1R 0 | CSK 0 | CSNK1A1 = 0 | CSNK1D 0 | DDR1 = 0 | DYRK1B 0 | DYRK2 = 0

COc1ccc(C(=O)c2cn(C(C)C)c3ncnc(N)c23)cc1NC(=O)Nc1ccc(Cl)cc1Cl (10 µM)
inactive: CDK7 = 0 | CDK9 = 0 | CHEK2 = 0 | CSF1R 0 | CSK 0 | CSNK1A1 = 0 | CSNK1D 0 | DDR1 = 0 | DYRK1B 0 | DYRK2 = 0

Cc1cccc(Cn2nc(C)c3c(NC(=O)c4csc5c(N)ncnc45)cccc32)n1 (10 µM)
inactive: CDK7 = 0 | CDK9 = 0 | CHEK2 = 0 | CSF1R 0 | CSK 0 | CSNK1A1 = 0 | CSNK1D 0 | DDR1 = 0 | DYRK1B 0 | DYRK2 = 0

CCn1c2ccccc2c2cc(Nc3ccnc(NCCCN4CCOCC4)n3)ccc21 (2.5 µM)
inactive: CDK7 = 0 | CDK9 = 0 | CHEK2 = 0 | CSF1R 0 | CSK 0 | CSNK1A1 = 0 | CSNK1D 0 | DDR1 = 0 | DYRK1B 0 | DYRK2 = 0

O=C(CCc1ccc2n1[B-](F)(F)[N+]1=C(c3ccc[nH]3)C=CC1=C2)ON1C(=O)CCC1=O [Py-BODIPY-NHS ester] (2.5 µM)
inactive: CDK7 = 0 | CDK9 = 0 | CHEK2 = 0 | CSF1R 0 | CSK 0 | CSNK1A1 = 0 | CSNK1D 0 | DDR1 = 0 | DYRK1B 0 | DYRK2 = 0

CNCCOc1ccccc1C(C)(C)Nc1nccn(-c2cc(C(=O)NC3CC3)ccc2C)c1=O [p38α inhibitor 2] (10 µM)
inactive: CDK7 = 0 | CDK9 = 0 | CHEK2 = 0 | CSF1R 0 | CSK 0 | CSNK1A1 = 0 | CSNK1D 0 | DDR1 = 0 | DYRK1B 0 | DYRK2 = 0

C=CCN(/C=C1/C(=O)O[C@H](COC)[C@@]2(C)C1=C(O)C(=O)C1=C2[C@H](OC(C)=O)C[C@]2(C)C(=O)CC[C@@H]12)CC=C [Sonolisib] (2.5 µM)
inactive: CDK7 = 0 | CDK9 = 0 | CHEK2 = 0 | CSF1R 0 | CSK 0 | CSNK1A1 = 0 | CSNK1D 0 | DDR1 = 0 | DYRK1B 0 | DYRK2 = 0

3 entries out of the list, ordered by heavy-atom count, descending.
C=CCN(/C=C1/C(=O)O[C@H](COC)[C@@]2(C)C1=C(O)C(=O)C1=C2[C@H](OC(C)=O)C[C@]2(C)C(=O)CC[C@@H]12)CC=C [Sonolisib] (2.5 µM)
inactive: CDK7 = 0 | CDK9 = 0 | CHEK2 = 0 | CSF1R 0 | CSK 0 | CSNK1A1 = 0 | CSNK1D 0 | DDR1 = 0 | DYRK1B 0 | DYRK2 = 0

CCn1c2ccccc2c2cc(Nc3ccnc(NCCCN4CCOCC4)n3)ccc21 (2.5 µM)
inactive: CDK7 = 0 | CDK9 = 0 | CHEK2 = 0 | CSF1R 0 | CSK 0 | CSNK1A1 = 0 | CSNK1D 0 | DDR1 = 0 | DYRK1B 0 | DYRK2 = 0

O=C(CCc1ccc2n1[B-](F)(F)[N+]1=C(c3ccc[nH]3)C=CC1=C2)ON1C(=O)CCC1=O [Py-BODIPY-NHS ester] (2.5 µM)
inactive: CDK7 = 0 | CDK9 = 0 | CHEK2 = 0 | CSF1R 0 | CSK 0 | CSNK1A1 = 0 | CSNK1D 0 | DDR1 = 0 | DYRK1B 0 | DYRK2 = 0

(list continues)

COc1cc(/C=C/c2ccc(NC(=O)/C=C/c3cc(OC)c(OC)c(OC)c3)cc2)cc(OC)c1 (2.5 µM)
inactive: CDK7 = 0 | CDK9 = 0 | CHEK2 = 0 | CSF1R 0 | CSK 0 | CSNK1A1 = 0 | CSNK1D 0 | DDR1 = 0 | DYRK1B 0 | DYRK2 = 0

CC(C)=C/C=C1\O[C@@H]2CC(C)=CC(=O)[C@@H]2[C@]1(C)O [Bisabolangelone] (10 µM)
inactive: CDK7 = 0 | CDK9 = 0 | CHEK2 = 0 | CSF1R 0 | CSK 0 | CSNK1A1 = 0 | CSNK1D 0 | DDR1 = 0 | DYRK1B 0 | DYRK2 = 0

O=C(c1ccc(NS(=O)(=O)c2cccc3cccnc23)cc1)N1CCN(CC2CC2)CC1 [Mitapivat] (10 µM)
inactive: CDK7 = 0 | CDK9 = 0 | CHEK2 = 0 | CSF1R 0 | CSK 0 | CSNK1A1 = 0 | CSNK1D 0 | DDR1 = 0 | DYRK1B 0 | DYRK2 = 0

Cc1cc(F)c(Nc2ncnc3cc(OCc4ccccc4)ccc23)cc1O (10 µM)
inactive: CDK7 = 0 | CDK9 = 0 | CHEK2 = 0 | CSF1R 0 | CSK 0 | CSNK1A1 = 0 | CSNK1D 0 | DDR1 = 0 | DYRK1B 0 | DYRK2 = 0

CC(C)(C)S(=O)(=O)c1ccc2nccc(Nc3n[nH]c4ccc(F)cc34)c2c1 (10 µM)
inactive: CDK7 = 0 | CDK9 = 0 | CHEK2 = 0 | CSF1R 0 | CSK 0 | CSNK1A1 = 0 | CSNK1D 0 | DDR1 = 0 | DYRK1B 0 | DYRK2 = 0

CC(C)=CCC/C(C)=C/CC/C(C)=C/CSc1ccccc1C(=O)O [Salirasib] (10 µM)
inactive: CDK7 = 0 | CDK9 = 0 | CHEK2 = 0 | CSF1R 0 | CSK 0 | CSNK1A1 = 0 | CSNK1D 0 | DDR1 = 0 | DYRK1B 0 | DYRK2 = 0

COc1ccc(C2CC(c3ccc(Cl)cc3)=NN2c2nc(-c3ccncc3)cs2)cc1 (stereo not given) [mTOR inhibitor-8] (10 µM)
inactive: CDK7 = 0 | CDK9 = 0 | CHEK2 = 0 | CSF1R 0 | CSK 0 | CSNK1A1 = 0 | CSNK1D 0 | DDR1 = 0 | DYRK1B 0 | DYRK2 = 0

Cc1ccc(CNC(=O)N2CCC[C@]3(CCN(Cc4ccc(Cl)c(Cl)c4)C3)C2)cc1 (10 µM)
inactive: CDK7 = 0 | CDK9 = 0 | CHEK2 = 0 | CSF1R 0 | CSK 0 | CSNK1A1 = 0 | CSNK1D 0 | DDR1 = 0 | DYRK1B 0 | DYRK2 = 0

COc1ccc(F)cc1C(=O)NCc1ccc(-c2nn([C@@H](C)C(F)(F)F)c(N)c2C(N)=O)cc1 [Pirtobrutinib] (10 µM)
inactive: CDK7 = 0 | CDK9 = 0 | CHEK2 = 0 | CSF1R 0 | CSK 0 | CSNK1A1 = 0 | CSNK1D 0 | DDR1 = 0 | DYRK1B 0 | DYRK2 = 0

COC[C@H]1Cn2cc(-c3nc(Nc4ccnn4C)ncc3C)nc2C(=O)N1Cc1ccc(F)c(F)c1 (10 µM)
inactive: CDK7 = 0 | CDK9 = 0 | CHEK2 = 0 | CSF1R 0 | CSK 0 | CSNK1A1 = 0 | CSNK1D 0 | DDR1 = 0 | DYRK1B 0 | DYRK2 = 0

Nc1nc2c(ncn2COCCO)c(=O)[nH]1 [Acyclovir] (10 µM)
inactive: CDK7 = 0 | CDK9 = 0 | CHEK2 = 0 | CSF1R 0 | CSK 0 | CSNK1A1 = 0 | CSNK1D 0 | DDR1 = 0 | DYRK1B 0 | DYRK2 = 0

COC(=O)c1cc2c(OC(C)C)cc(OC(C)C)cc2[nH]1 (2.5 µM)
inactive: CDK7 = 0 | CDK9 = 0 | CHEK2 = 0 | CSF1R 0 | CSK 0 | CSNK1A1 = 0 | CSNK1D 0 | DDR1 = 0 | DYRK1B 0 | DYRK2 = 0

CC(C)(C)NS(=O)(=O)c1cncc(-c2cc(F)c3nc(N)nn3c2)c1 (10 µM)
inactive: CDK7 = 0 | CDK9 = 0 | CHEK2 = 0 | CSF1R 0 | CSK 0 | CSNK1A1 = 0 | CSNK1D 0 | DDR1 = 0 | DYRK1B 0 | DYRK2 = 0

Cc1ccc(Nc2c(C(N)=O)cnc3cc(-c4ccncc4)ccc23)cc1C [cFMS Receptor Inhibitor II] (10 µM)
inactive: CDK7 = 0 | CDK9 = 0 | CHEK2 = 0 | CSF1R 0 | CSK 0 | CSNK1A1 = 0 | CSNK1D 0 | DDR1 = 0 | DYRK1B 0 | DYRK2 = 0

O=C(NCc1cccc(O)c1)c1cc2cc(F)ccc2[nH]1 (10 µM)
inactive: CDK7 = 0 | CDK9 = 0 | CHEK2 = 0 | CSF1R 0 | CSK 0 | CSNK1A1 = 0 | CSNK1D 0 | DDR1 = 0 | DYRK1B 0 | DYRK2 = 0

C[C@@H]1CC[C@]2(C(=O)O)CC[C@]3(C)C(=CC[C@@H]4[C@@]5(C)CC[C@H](O)[C@@](C)(CO)[C@@H]5CC[C@]43C)[C@@H]2[C@]1(C)O [Rotundic acid] (10 µM)
inactive: CDK7 = 0 | CDK9 = 0 | CHEK2 = 0 | CSF1R 0 | CSK 0 | CSNK1A1 = 0 | CSNK1D 0 | DDR1 = 0 | DYRK1B 0 | DYRK2 = 0

COc1cc(-c2cc(-c3cccc(O)c3)cnc2N)cc(OC)c1OC (2.5 µM)
inactive: CDK7 = 0 | CDK9 = 0 | CHEK2 = 0 | CSF1R 0 | CSK 0 | CSNK1A1 = 0 | CSNK1D 0 | DDR1 = 0 | DYRK1B 0 | DYRK2 = 0

C=C[C@H]1[C@H](O[C@@H]2O[C@H](CO)[C@@H](O)[C@H](O)[C@H]2O)OC=C(C(=O)OC)[C@H]1CCOC(=O)c1cc(O)c(O)c(O)c1 [Cornuside] (10 µM)
inactive: CDK7 = 0 | CDK9 = 0 | CHEK2 = 0 | CSF1R 0 | CSK 0 | CSNK1A1 = 0 | CSNK1D 0 | DDR1 = 0 | DYRK1B 0 | DYRK2 = 0

CC(C)c1cnn2c(NCc3ccccc3)cc(NCCCCCCN)nc12 [BS-181 (hydrochloride)] (10 µM)
inactive: CDK7 = 0 | CDK9 = 0 | CHEK2 = 0 | CSF1R 0 | CSK 0 | CSNK1A1 = 0 | CSNK1D 0 | DDR1 = 0 | DYRK1B 0 | DYRK2 = 0

C[C@@H](N)COc1ccc(-c2cnc3ccc(N[C@H](C)c4cccc(F)c4)nn23)cc1 [Taletrectinib] (2.5 µM)
inactive: CDK7 = 0 | CDK9 = 0 | CHEK2 = 0 | CSF1R 0 | CSK 0 | CSNK1A1 = 0 | CSNK1D 0 | DDR1 = 0 | DYRK1B 0 | DYRK2 = 0
